Source: PubChem BioAssay AID2685 (National Center for Advancing Translational Sciences (NCATS), 2010)
This is one part of the list. Further columns of the screen follow, without active or inactive calls. Compounds called inactive in the main read-out are mostly missing here. Potencies come from curve fits of mixed quality, noted in brackets.

Experiment: qHTS Assay for Lipid Storage Modulators in Drosophila S3 Cells;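 as to cell number change: cells counted by Cell Tracker Red CMTPX staining in the red channel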
Conditions: BODIPY lipid droplet fluorescence, 18-24 h; for cell number change: measured here: cell count max response, cells fed with added oleic acid
In short: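 Laser-scanning cytometry quantifies lipid droplet accumulation (500–530 nm total intensity; droplet/cell object ratio) in oleic acid-fed (400 uM added) Drosophila S3 cells treated with a concentration series. 20 uM Triacsin C defined 100% inhibition.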

[1] = measured here: lipid fluorescence (Fed channel) AC50, cells fed with added oleic acid
[2] = measured here: cell number channel AC50, cells fed with added oleic acid

SMILES	cell number change	AC50 [1]	AC50 [2]
C=C(C)CNC(=S)N/N=C/C1=CCC2CC1C2(C)C (stereo not given)	-15.4%	25.9 µM [falling, single point]	–
Cc1cccc(-n2cnc(C(=O)N/N=C/c3ccccc3)c2)n1	–	2.31 µM [rising, partial curve]	2.06 µM [rising, partial curve]
COc1ccccc1NS(=O)(=O)c1cc(NC(=O)c2cc3ccccc3oc2=O)ccc1C	-0.754%	2.59 µM [rising, single point]	–
CCOc1ccc(S(=O)(=O)N2CCC(C(=O)NCCc3ccccc3)CC2)cc1	-18.3%	29.1 µM [falling, single point]	–
O=C(COc1ccccc1Cl)Nc1cc(Cl)ccc1Oc1ccccc1	27.8%	–	–
Cc1ccc2cc(C(c3nnnn3C3CCCC3)N(Cc3cccnc3)Cc3ccco3)c(=O)[nH]c2c1 (stereo not given)	-13.7%	3.26 µM [rising, partial curve]	–
CCOC(=O)c1sc2nc(CC(=O)OC)nc(N3CCN(c4ccccn4)CC3)c2c1C	-18.3%	13 µM [falling, partial curve, poor fit]	–
COCCCNS(=O)(=O)c1ccc2c(c1)OCCO2	30%	0.259 µM [falling, full curve]	0.206 µM [rising, full curve, poor fit]
CC(C)(C)[C@]1(O)CCN2C[C@H]3c4ccccc4CCc4cccc(c43)[C@@H]2C1	-58.7%	14.6 µM [falling, partial curve]	14.6 µM [falling, partial curve]
CCOC(=O)c1cnc(-n2nc(C)cc2C)nc1Nc1ccccc1OC	15.2%	–	–
CCN(C(=O)COc1cc(=O)n(C)c2ccccc12)c1cccc(Cl)c1	2.01%	0.13 µM [rising, full curve, poor fit]	–
CCn1cnc2c([N+](=O)[O-])c(NS(=O)(=O)c3ccc(C)cc3)ccc21	-43.4%	2.59 µM [falling, full curve]	29.1 µM [falling, single point]
CC1(c2ccc(OC(F)F)cc2)NC(=O)N(CC(=O)Nc2ccc3c(c2)OCO3)C1=O (stereo not given)	118%	–	0.13 µM [rising, full curve, poor fit]
COc1ccc(S(=O)(=O)NN(C)c2nc(C(F)(F)F)nc3ccccc23)cc1	1.76%	–	–
CCOc1ccccc1O[C@H](c1ccccc1)[C@H]1CNCCO1	51.6%	2.59 µM [rising, partial curve]	1.64 µM [rising, partial curve]
CC(=O)N1CCN(C(=O)COC(=O)CNC(=O)c2ccc(C)cc2)CC1	2.45%	–	4.61 µM [falling, single point]
Cc1cccc(NC(=O)CCC(=O)c2cccs2)n1	–	–	3.66 µM [rising, single point]
C=CCc1ccccc1OCC(O)CN1CCN(c2ccccc2F)CC1 (stereo not given)	-53.4%	29.1 µM [falling, single point]	32.6 µM [falling, single point]
O=C(Cc1ccccc1)NCC(=O)N/N=C/c1ccc([N+](=O)[O-])s1	–	29.1 µM [falling, single point]	–
Clc1cc(Br)ccc1OCCn1ccnc1	80.4%	–	13 µM [rising, partial curve]

A few values from the results shown:
`O=C(COc1ccccc1Cl)Nc1cc(Cl)ccc1Oc1ccccc1` | cell number change: 27.8%
`CC1(c2ccc(OC(F)F)cc2)NC(=O)N(CC(=O)Nc2ccc3c(c2)OCO3)C1=O` (stereo not given) | cell number change: 118%

Continuation:

SMILES	cell number change	AC50 [1]	AC50 [2]
O=c1[nH]c2ccc(Cl)cc2c(O)c1-c1ccccc1	4.17%	29.1 µM [rising, single point]	–
O=C(Nc1ccccc1)N(Cc1ccccc1)C1=NCCS1	-20%	4.11 µM [falling, full curve]	–
Cc1cc(=O)[nH]c(-n2nc(C)c(Oc3ccccc3O)c2C)n1	0.571%	–	–
COc1ccccc1OC(C)C(=O)Nc1nc(-c2ccc(S(=O)(=O)N3CCOCC3)cc2)cs1 (stereo not given)	-21.7%	29.1 µM [falling, single point]	–
COc1ccc(CNC(=O)c2cc(S(=O)(=O)N3CCOCC3)cn2C)cc1	20.5%	3.66 µM [rising, full curve]	–
CC(OC(=O)Cn1cc(C(F)(F)F)ccc1=O)C(=O)NC(C)c1ccc(Cl)cc1Cl (stereo not given)	31.8%	25.9 µM [rising, single point]	14.6 µM [rising, single point]
O=C(CSc1ccc(-c2cccs2)nn1)NCc1ccccc1Cl	-10.2%	0.58 µM [falling, full curve, poor fit]	–
CCc1ccccc1NC(=O)CSc1nnc([C@@H](NC(=O)OC(C)(C)C)C(C)CC)o1 (stereo not given in full)	-1.5%	3.66 µM [falling, partial curve]	–
COc1ccc(F)cc1C(=O)C1CCCN(C(=O)CSc2ccccn2)C1 (stereo not given)	-14.5%	16.4 µM [falling, single point]	–
Brc1ccc(-c2cnc(-c3cccs3)o2)cc1	-34.2%	–	32.6 µM [falling, single point]
Cc1nc2cc(-c3cccc(F)c3)nn2c(C)c1CCC(=O)NC(C)CCc1ccco1 (stereo not given)	-26.7%	29.1 µM [falling, single point]	–
O=c1[nH][nH]c(-c2ccccc2O)c1C(C[N+](=O)[O-])c1ccccc1 (stereo not given)	65%	–	18.4 µM [rising, single point]
O=C(COc1ccccc1F)Nc1nnc(C2CCCC2)s1	7.08%	6.51 µM [rising, single point]	–
CCNC(=O)CC1C(=O)N(c2ccc(F)cc2)C(=O)N1Cc1ccccn1 (stereo not given)	22.9%	18.4 µM [rising, single point]	–
Cc1ccc(S(=O)(=O)N(CC(=O)c2ccc(Cl)cc2)C(=O)N2CCN(C)CC2)cc1	8.01%	29.1 µM [falling, single point]	–
Cc1cccc(N2CCN(C(=O)c3cccc(N4C(=O)C5C6C=CC(C6)C5C4=O)c3)CC2)c1C (stereo not given)	37.9%	0.731 µM [rising, single point]	25.9 µM [rising, single point]
Cc1ccc(S(=O)(=O)Nc2ccccc2F)cc1C(=O)NCCCN1CCCC1=O	5.07%	–	–
Cc1nc2c(c(=O)n1CCC1=CCCCC1)c1nc3ccccc3nc1n2/N=C/c1ccco1	–	6.51 µM [rising, partial curve]	1.46 µM [rising, single point]
Cc1ccc(OCC(=O)Nc2cccc(S(=O)(=O)N3CCCCCC3)c2)c([N+](=O)[O-])n1	-3.25%	6.51 µM [falling, single point]	–
CCCCCCCCCn1ccc(=N)cc1	-64.2%	5.8 µM [falling, full curve]	1.64 µM [falling, full curve]

SMILES	cell number change	AC50 [1]	AC50 [2]
Cc1ccc(NCC(=O)Nc2cccc(F)c2)cc1S(=O)(=O)N1CCCCCC1	0.872%	–	–
O=C(CNC(=O)c1cccs1)NC1=NCCS1	-5.39%	29.1 µM [falling, single point]	–
O=C1N(CCCCN2C(=O)C3(OCCO3)c3ccccc32)c2ccccc2C12OCCO2	150%	13 µM [rising, partial curve]	18.4 µM [rising, partial curve]
CCc1ccc2nc(N3C(=O)C(O)=C(C(=O)c4ccco4)C3c3cccs3)sc2c1 (stereo not given)	-25.9%	23.1 µM [falling, single point]	–
Cc1ccc(C(=O)N(C)CC(=O)Nc2cccc(F)c2)cc1S(=O)(=O)N1CCCCC1	11.5%	20.6 µM [rising, single point]	–
CCOc1ccc(NC(=O)c2cc(C3CC3)nc3c2cnn3C(C)C)cc1OC	-0.791%	–	–
Cc1ccc(NC(=O)Cn2nnc(C(=O)NCCc3ccccc3)c2N)cc1Cl	7.25%	0.58 µM [falling, single point]	–
CCOc1ccccc1NC(=O)c1ccc(CN2CCc3ccccc3C2)cc1	-19.8%	–	0.13 µM [falling, full curve, poor fit]
O=C(CSc1nc2nn(-c3ccccc3)c(=O)c-2c2n1CCCCC2)NCCCc1ccccc1	–	0.326 µM [rising, full curve]	1.3 µM [rising, partial curve]
CN(CC(=O)Nc1ccccc1Br)C(=O)CCC1CCCC1	3.78%	–	–
Cc1ccc(-n2nc3c(=O)n(CCCC(=O)NCc4ccccc4F)nc(C)c3c2C)cc1	11.5%	0.13 µM [rising, full curve, poor fit]	–
O=C(CSc1nc2ccncc2[nH]1)Nc1ccccc1C(F)(F)F	-24.4%	–	–
O=C(COc1ccc(Br)cc1)N1CCN(c2ncccn2)CC1	-0.111%	0.082 µM [falling, full curve, poor fit]	–
Cc1ccc(Nc2ccc(C(=O)NCCc3ccccc3)cn2)cc1	8.64%	5.8 µM [rising, full curve, poor fit]	–
COc1cccc(C(=O)N2CCN(Cc3ccc(OC)cc3OC)CC2)c1	13.8%	–	–
CN1CCN(C(=O)c2ccccc2NS(=O)(=O)c2ccc(F)cc2)CC1	-5.94%	1.84 µM [rising, single point]	–
c1coc(Cn2nnnc2CN2CCN(C3CCCC3)CC2)c1	-16.6%	25.9 µM [falling, single point]	–
COc1ccc(C(=O)/C=C/Nc2ccccn2)cc1	–	4.61 µM [rising, full curve, poor fit]	4.11 µM [rising, partial curve, poor fit]
CCOC(=O)c1ccc(NC(=O)Oc2ccccc2)cc1	-8.71%	32.6 µM [falling, single point]	–

Three structures already listed, sorted by SMILES length, ascending.
SMILES	cell number change	AC50 [1]	AC50 [2]
O=C(CNC(=O)c1cccs1)NC1=NCCS1	-5.39%	29.1 µM [falling, single point]	–
O=c1[nH]c2ccc(Cl)cc2c(O)c1-c1ccccc1	4.17%	29.1 µM [rising, single point]	–
Cc1nc2cc(-c3cccc(F)c3)nn2c(C)c1CCC(=O)NC(C)CCc1ccco1 (stereo not given)	-26.7%	29.1 µM [falling, single point]	–
